Experimental data published in PubChem BioAssay AID623959 (National Center for Advancing Translational Sciences (NCATS), 2012).
Screen size: about 1,400 compounds; fewer than 10 were called active. About 8% were inconclusive and are not listed. Calls follow the shape of the dose curve; as a rule, active = well fitted curve in the direction sought with a large enough effect; inconclusive = small, poorly fitted or top-dose-only effect, or another doubt; inactive = no such curve, though single readings can be large or run the other way. Some of the results follow.

Sequences of proteins named here, by UniProt entry; tags and fusion partners are left off.
UniProt Q8NER1, whole entry, looked up: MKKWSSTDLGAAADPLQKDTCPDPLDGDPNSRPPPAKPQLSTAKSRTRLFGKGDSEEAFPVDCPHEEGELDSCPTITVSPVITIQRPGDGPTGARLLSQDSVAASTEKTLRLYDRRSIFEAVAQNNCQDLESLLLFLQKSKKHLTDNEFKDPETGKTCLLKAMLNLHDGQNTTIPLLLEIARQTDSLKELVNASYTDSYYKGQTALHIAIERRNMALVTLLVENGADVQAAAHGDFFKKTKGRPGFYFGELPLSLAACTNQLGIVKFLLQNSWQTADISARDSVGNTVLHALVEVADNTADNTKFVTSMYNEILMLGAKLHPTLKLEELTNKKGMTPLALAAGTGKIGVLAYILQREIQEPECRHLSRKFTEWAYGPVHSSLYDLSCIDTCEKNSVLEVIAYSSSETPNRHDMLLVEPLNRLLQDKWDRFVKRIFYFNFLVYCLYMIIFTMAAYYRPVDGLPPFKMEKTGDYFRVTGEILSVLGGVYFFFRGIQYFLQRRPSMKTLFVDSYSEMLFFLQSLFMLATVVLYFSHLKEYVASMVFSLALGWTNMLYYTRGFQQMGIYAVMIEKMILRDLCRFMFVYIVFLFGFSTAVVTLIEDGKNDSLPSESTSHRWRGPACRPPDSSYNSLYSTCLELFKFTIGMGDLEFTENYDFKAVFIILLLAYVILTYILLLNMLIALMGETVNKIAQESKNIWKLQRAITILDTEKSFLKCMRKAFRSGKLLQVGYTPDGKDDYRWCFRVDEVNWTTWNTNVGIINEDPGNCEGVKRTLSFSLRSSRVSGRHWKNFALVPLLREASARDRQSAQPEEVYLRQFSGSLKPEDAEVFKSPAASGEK

biological target: Transient receptor potential cation channel subfamily V member 1 (Homo sapiens) (UniProt Q8NER1); experiment: qHTS Assay for Compounds that Act as Potentiators of the Vanilloid Receptor 1: Hit Validation; conditions: TRPV1-expressing cells, Fluo-8 calcium influx, capsaicin EC20; series mostly up to 42.1 µM; activity change, positive = potentiation: at the top concentration; also: % of control where 0% means no effect
Method in brief: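 TRPV1 cells (2000/well, overnight 35.5 °C) loaded with Fluo-8 calcium dye 40–90 min at room temperature. FDSS fluorescence (ex 480/em 520 nm) read 3 min after compound, then 2 min after capsaicin at EC20.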

| Structure (SMILES) | activity change, positive = potentiation |
| --- | --- |
| COC(=O)c1c(NC(=O)c2nc3nc(C)cc(C(F)F)n3n2)sc2c1CCC2 | inactive: -6.26% |
| O=C(Cc1cccc2ccccc12)Nc1ccccc1C(=O)O | inactive: -7.93% |
| Cc1ccc(NC(=O)C2CC=CCC2C(=O)N2CCCCC2)cc1 (centres undefined) | inactive: -5.49% |
| CC(C)(C)c1ccc(OCC(=O)Nc2ccncc2)c(Br)c1 | inactive: -37.9% |
| COc1ccc(N(CC(=O)O)S(=O)(=O)c2ccc(OC)c(OC)c2)cc1 | inactive: 1.81% |
| Cc1ccc(Nc2nc(C)nc3c2oc2ccccc23)cc1 | inactive: -39.1% |
| Cc1ccc(C(=O)Nc2ccc(SC(F)F)cc2)s1 | inactive: -37.5% |
| COC(=O)CNC(=O)C12CC3(C)CC(C)(CC(C)(C3)C1)C2 | inactive: -15.2% |
| O=C(Nc1ccc(F)cc1)/C(Cl)=C/c1ccccc1 | inactive: -32.3% |
| Cc1ccc(OCCSc2nc3ccccc3n2CC(=O)O)cc1C | inactive: -5.44% |
| CCCCSc1nnc([C@H](C)NC(=O)OC(C)(C)C)o1 | inactive: -6.85% |
| O=C(Nc1cccs1)Nc1ccc(Br)cc1F | inactive: -34% |
| O=c1sc2ccccc2c(N2CCOCC2)c1[N+](=O)[O-] | inactive: -7.29% |
| COc1ccc(C)cc1N(C(=O)c1snc(C(N)=O)c1N)C(C(=O)NC1CCCC1)c1ccc(F)cc1 (centres undefined) | inactive: -36.7% |
| O=C(Nn1c(Cc2ccccc2)nc2ccccc2c1=O)c1c(O)c2cccc3c2n(c1=O)CCC3 | inactive: -2.78% |
| CCCOc1ccc(S(=O)(=O)NNC(=O)c2cc3ccccc3o2)cc1 | inactive: 1.93% |
| Cc1ccc(S(=O)(=O)Cc2ccc(C(=O)NCCc3ccccc3)o2)cc1 | inactive: -35.8% |
| Cc1ccc(S(=O)(=O)N(C)c2ccc(C)c([N+](=O)[O-])c2)cc1 | inactive: -5.09% |
| C#CCOCCOCCOCCNc1nc(N2CCN(C(=O)[C@H]([C@@H](C)CC)n3cc(CCCCN)nn3)CC2)nc(N2CCN(C(=O)[C@H](CCCCN)n3cc(CC(C)O)nn3)CC2)n1 (some centres undefined) | inactive: -6.07% |
| Nc1ccccc1N=Cc1ccc(-c2cccc(Cl)c2)o1 | inactive: -37.7% |
| CCN(CC)CCN(C(=O)c1ccc(C(C)=O)cc1)c1nc2ccc(Cl)cc2s1 | inactive: -14.7% |
| CCS(=O)(=O)N1CCC(N2CCN(c3ccccc3)CC2)CC1 | inactive: 5.91% |
| COc1cccc(N2CCN(C(=O)CCS(=O)(=O)c3ccc4c(c3)oc(=O)n4C)CC2)c1 | inactive: -8.02% |
| CCN(CC(=O)Nc1ccccc1OC)CC(=O)Nc1sccc1C#N | inactive: 5.9% |
| Cc1ccccc1NC(=O)CSc1nc(-c2ccccc2)cc(=O)[nH]1 | inactive: -10.3% |
| Cc1ccc(NC(=O)CN(C)C(C)C(=O)Nc2ccc(S(=O)(=O)N3CCCC3)cc2)cc1 (centres undefined) | inactive: -4.26% |
| O=C(NCCc1ccccc1)C1c2ccccc2C(=O)N1Cc1cccs1 (centres undefined) | inactive: 2.33% |

Filtered by structure: the compounds so far with a nitro group on carbon (two)

| Structure (SMILES) | activity change, positive = potentiation |
| --- | --- |
| O=c1sc2ccccc2c(N2CCOCC2)c1[N+](=O)[O-] | inactive: -7.29% |
| Cc1ccc(S(=O)(=O)N(C)c2ccc(C)c([N+](=O)[O-])c2)cc1 | inactive: -5.09% |

Looked up above:
Entry for CCS(=O)(=O)N1CCC(N2CCN(c3ccccc3)CC2)CC1 under activity change, positive = potentiation: inactive: 5.91%
Entry for COc1cccc(N2CCN(C(=O)CCS(=O)(=O)c3ccc4c(c3)oc(=O)n4C)CC2)c1 under activity change, positive = potentiation: inactive: -8.02%

(list continues)

| Structure (SMILES) | activity change, positive = potentiation |
| --- | --- |
| Cc1ccccc1-c1nc2cc(Cl)ccc2o1 | inactive: 4.07% |
| COc1ccc(Cn2nc(-c3ccccc3)c(N3CCCCC3)cc2=O)cc1 | inactive: -39.1% |
| O=C(Nc1ccncc1)c1ccc(Br)cc1 | inactive: -22.6% |
| COc1ccc(NC(=O)c2ccccc2NC(=O)C2CC=CCC2C(=O)O)cc1 (centres undefined) | inactive: -4.77% |
| COc1cc(NC2CCCCC2O)c2nc(-c3ccc(Cl)cc3)ccc2c1 (centres undefined) | inactive: 2.71% |
| O=C1c2cccnc2C(Nc2ccc(Br)cc2)N1Cc1cccs1 (centres undefined) | inactive: -38.5% |
| CCc1sc(C(=O)NC2CCN(C)CC2)cc1Br | inactive: -1.61% |
| CC(C)(C)c1ccc(C(=O)Nc2ccc(C=C(C#N)C#N)cc2)cc1 | inactive: -39.6% |
| C=CCC1c2cccc(C(=O)O)c2C(=O)N1c1cccc(OC)c1 (centres undefined) | inactive: -1.3% |
| CCN(CC)c1ccc(C(=O)NNC(=O)CCl)cc1 | inactive: 2.08% |
| CC1CCN(CCOc2ccc(C(=O)c3ccccc3)cc2)CC1 | inactive: 4.67% |
| COc1ccc(NC(=O)c2ccc3ncsc3c2)cc1 | inactive: -38.9% |
| COc1ccc2[nH]c3nc(SCC(=O)Nc4cccc(NC(C)=O)c4)nnc3c2c1 | inactive: 3.38% |
| O=C(COC(=O)C12CC3CC(CC(C3)C1)C2)Nc1ccc2[nH]c(=O)[nH]c2c1 | inactive: -4.81% |
| COc1ccc(CNC(=S)NCc2ccc(Cl)cc2)cc1OC | inactive: -37.6% |
| COC(=O)[C@@]12CCCN1[C@H](c1ccc(-c3ccc(OC)cc3)cc1)[C@@H]1C(=O)N(C)C(=O)[C@@H]12 | inactive: -7.31% |
| C/C(=N\NC(=O)c1ccncc1)c1cccc(NC(=O)c2ccc(C(C)(C)C)cc2)c1 | inactive: -20.7% |
| CC(C)(C)c1ccc(/C=C/C(=O)Nc2ccncc2)cc1 | inactive: -38.6% |
| Cc1ccc(S(=O)(=O)N2CCCCC2)cc1C(=O)NC1CCCCC1 | inactive: -4.45% |
| Cn1c(=O)[nH]c(=O)c2c1nc(Br)n2CCCSc1nc2ccccc2o1 | inactive: -6.26% |
| CCc1ccc(Nc2n[n+](-c3ccccc3)c(-c3cccc(Cl)c3Cl)s2)cc1 | inactive: -3.66% |
| Cc1c(C(=O)Nc2ccncc2)sc2nc(-c3ccccc3)cn12 | inactive: -36.5% |
| Cn1cnnc1SCC(=O)N1N=C(c2ccc(Cl)cc2)CC1c1ccco1 (centres undefined) | inactive: -12.8% |
| Cc1cc(C)cc(-n2nnn(C3C/C(=N/NC(N)=S)C4OCC3O4)c2=S)c1 (centres undefined) | inactive: -2.49% |
| CCOC(=O)c1ccc(NC(=O)c2cc3c(s2)CCC3)cc1 | inactive: -38.3% |
| COCCNC(=O)CCCCCN1C(=O)CCC1=O | inactive: 3.96% |
| N/C(=N\OC(=O)c1cccs1)c1ccc(Cl)cc1 | inactive: -5.53% |
